Results are given in words; binding and its absence hold for the method and conditions named. Binding can be weak; no strength is given. Where a sequence is shown, tags or fusion partners need not be part of it.
What was measured:
[1] = molecular target: sol VEGFR2; experiment: SPR
[2] = molecular target: sol VEGFR2; experiment: SPR (Example 4)

B1: ABD-(GS)3-C7FL-His6 (anti-VEGFR2 adnectin linked to ABD at its N-terminus) (designed binder)
chain: MGQHDEAVDANSLAEAKVLANRELDKYGVSDYYKNLINNAKTVEGVKALIDEILAALPGSGSGSVSDVPRDLEVVAATPTSLLISWRHPHFPTRYYRITYGETGGNSPVQEFTVPLQPPTATISGLKPGVDYTITVYAVTDGRNGRLLSIPISINYRTGSGSHHHHHH
In the case of B1, the binding [1] is reported as “binds” and the binding [2] is reported as “binds”.
